Assay results from PMC12238259.
No constants are given. Whether binding was seen depends on the method and setting. Binding seen in cells or lysates may run through a third protein. Some results given as binding are weak or reduced against the parent protein; the word gives no strength.

The chains behind the UniProt entries cited, without tags or fusion partners. Where a name states a change or a piece, a line headed by the entry shows the natural chain unless it says otherwise. A line that says so, or that is headed by a name, gives the form on record, which may keep a tag or linker.
UniProt Q969H0: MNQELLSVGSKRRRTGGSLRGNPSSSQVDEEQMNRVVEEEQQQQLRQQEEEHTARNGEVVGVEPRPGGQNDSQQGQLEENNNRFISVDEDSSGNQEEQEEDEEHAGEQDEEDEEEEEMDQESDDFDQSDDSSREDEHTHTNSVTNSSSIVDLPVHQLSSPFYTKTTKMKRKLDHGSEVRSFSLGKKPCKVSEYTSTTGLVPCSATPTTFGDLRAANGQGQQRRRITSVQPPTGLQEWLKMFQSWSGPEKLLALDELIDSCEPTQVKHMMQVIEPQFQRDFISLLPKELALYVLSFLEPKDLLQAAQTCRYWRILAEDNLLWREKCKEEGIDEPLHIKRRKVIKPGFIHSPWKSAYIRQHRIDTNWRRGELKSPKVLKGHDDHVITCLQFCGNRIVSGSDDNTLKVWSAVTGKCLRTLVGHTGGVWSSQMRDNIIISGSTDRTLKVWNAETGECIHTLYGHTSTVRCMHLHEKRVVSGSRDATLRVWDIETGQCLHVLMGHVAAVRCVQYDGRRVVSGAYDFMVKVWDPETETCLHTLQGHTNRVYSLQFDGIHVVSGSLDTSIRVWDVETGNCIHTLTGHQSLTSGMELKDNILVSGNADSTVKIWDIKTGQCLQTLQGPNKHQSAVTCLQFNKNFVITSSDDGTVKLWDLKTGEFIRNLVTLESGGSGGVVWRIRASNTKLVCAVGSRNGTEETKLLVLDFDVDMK
FBW7β-Myc(tag) (Q969H0, form named): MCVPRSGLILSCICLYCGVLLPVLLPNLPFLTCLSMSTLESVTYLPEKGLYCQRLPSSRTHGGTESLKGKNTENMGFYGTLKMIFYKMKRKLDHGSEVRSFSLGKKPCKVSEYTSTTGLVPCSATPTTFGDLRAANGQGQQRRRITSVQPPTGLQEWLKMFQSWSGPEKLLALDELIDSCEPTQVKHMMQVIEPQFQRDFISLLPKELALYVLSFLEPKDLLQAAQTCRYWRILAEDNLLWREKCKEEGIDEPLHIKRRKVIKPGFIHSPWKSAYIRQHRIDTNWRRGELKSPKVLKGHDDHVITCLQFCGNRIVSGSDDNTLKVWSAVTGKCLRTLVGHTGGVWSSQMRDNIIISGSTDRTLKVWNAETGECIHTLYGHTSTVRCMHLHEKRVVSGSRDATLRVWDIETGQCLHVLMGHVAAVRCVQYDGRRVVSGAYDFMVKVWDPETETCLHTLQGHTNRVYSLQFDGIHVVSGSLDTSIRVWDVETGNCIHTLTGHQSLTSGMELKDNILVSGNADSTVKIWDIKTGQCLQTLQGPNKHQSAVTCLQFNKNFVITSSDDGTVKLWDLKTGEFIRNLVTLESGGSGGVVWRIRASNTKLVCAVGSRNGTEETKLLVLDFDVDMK
UniProt P01106: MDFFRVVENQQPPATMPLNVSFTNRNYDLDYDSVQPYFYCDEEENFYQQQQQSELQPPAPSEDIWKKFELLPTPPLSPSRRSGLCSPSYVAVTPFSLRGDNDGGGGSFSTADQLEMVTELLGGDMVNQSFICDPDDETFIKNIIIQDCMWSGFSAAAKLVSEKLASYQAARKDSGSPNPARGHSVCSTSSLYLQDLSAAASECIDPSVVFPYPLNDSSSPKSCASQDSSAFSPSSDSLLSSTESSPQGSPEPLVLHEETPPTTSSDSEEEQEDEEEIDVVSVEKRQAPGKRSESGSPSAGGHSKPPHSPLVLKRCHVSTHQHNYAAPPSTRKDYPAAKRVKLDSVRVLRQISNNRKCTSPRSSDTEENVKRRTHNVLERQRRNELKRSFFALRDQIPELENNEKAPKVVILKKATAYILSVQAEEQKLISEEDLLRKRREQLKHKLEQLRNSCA

Experiments:
FBW7α-Myc(tag) = FBW7α-Myc(tag) (UniProt Q969H0); assay: co-IP; HEK293T cells co-transfected with the plasmids (PEI), MG132 20 μM (6 h in the legends, 4 h in the methods); lysis in 50 mM Tris-HCl pH 7.4, 1 mM EDTA, 1% Triton X-100, 150 mM NaCl; Anti-Flag or Anti-Myc magnetic beads, 4 °C, 4-6 h; Western blot; in the competitive IPs with or without a third overexpressed protein
FBW7β-Myc(tag) = FBW7β-Myc(tag) (UniProt Q969H0); assay: as above

Substance | binding (FBW7α-Myc(tag)) | binding (FBW7β-Myc(tag))
3×Flag-c-Myc (from UniProt P01106 1-454) | binds | binds
c-Myc (notag) (from UniProt P01106 1-454) | binds | –
